According to PubChem BioAssay:
The other results are listed elsewhere or left out. Shown are side measurements of this screen, not its main read-out; they come without a call. For some of these results: Most of these compounds were active or inconclusive in the main read-out, so they are no random draw.

Key:
PubChem AID 1586 = settings: yeast two-hybrid polyglutamine protein interaction, reporter readout; measured here: averaged growth delta OD
[1] = selective SMN2 exon splicing luciferase activators – cell-based, SMN2/SMN1 luciferase reporters (AID 1598); settings: SMN2 vs SMN1 luciferase splicing reporter cells, at 10 µM; SMN1 luciferase ratio: measured here: SMN1 luciferase reporter average; SMN2 luciferase ratio: measured here: SMN2 luciferase reporter average, stronger effect = higher value
[2] = rescue of PC12 cells from polyQ htt toxicity – LDH release (AID 1610); settings: PC12 mutant huntingtin toxicity, final LDH at 4 uM, stronger effect = lower value

| Compound | signal change (36 h minus 0 h) (PubChem AID 1586) | SMN1 luciferase ratio [1] | SMN2 luciferase ratio [1] | normalised LDH release [2] |
| --- | --- | --- | --- | --- |
| Cc1ccccc1C(OCCN(C)C)c1ccccc1 (stereo unspecified) | 0.138 | 0.94 | 0.82 | 0.993 |
| COC(=O)[C@H]1[C@H]2C[C@H]3c4[nH]c5ccccc5c4CCN3C[C@H]2CC[C@@H]1O | 0.153 | 0.86 | 1.03 | 0.22 |
| NC[C@@H]1O[C@H](OC2[C@@H](O)[C@H](O[C@@H]3[C@H](N)[C@@H](O)C[C@H](N)[C@H]3O[C@H]3O[C@H](CO)[C@@H](O)[C@H](O)[C@H]3N)O[C@@H]2CO)[C@H](N)[C@@H](O)[C@@H]1O (stereo partly specified) | -0.0493 | 0.94 | 1 | 0.832 |
| COC(=O)C1[C@H]2C[C@H]3c4[nH]c5ccccc5c4CCN3C[C@@H]2CC[C@@H]1O (stereo partly specified) | 0.0199 | 1.01 | 0.88 | 0.915 |
